Assay results from PubChem BioAssay AID2685 (National Center for Advancing Translational Sciences (NCATS), 2010).
The list shows a part of the results. Shown are side measurements of this screen, not its main read-out; they come without a call. The list favours compounds with an active or inconclusive main result. The note in brackets gives the kind of curve behind each potency; many fits are weak.

Experiment: qHTS Assay for Lipid Storage Modulators in Drosophila S3 Cells;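 on cell number change: cells counted by Cell Tracker Red CMTPX staining in the red channel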
Conditions: BODIPY lipid droplet fluorescence, 18-24 h; for cell number change: measured here: cell count max response, cells fed with added oleic acid
Method in brief: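 Drosophila S3 cells got compounds at several concentrations plus oleic acid (400 uM solution). Laser-scanning cytometry with 488 nm excitation read lipid droplets at 500-530 nm and cells at 575-640 nm. Percent activity was relative to 20 uM Triacsin C.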

[1] = measured here: lipid fluorescence (Fed channel) AC50, cells fed with added oleic acid
[2] = measured here: cell number channel AC50, cells fed with added oleic acid

O=C(NNc1ccc(O)cc1)c1ccc(Br)cc1
cell number change: 17.2%
AC50 [1]: 0.58 µM [falling, single point]

Cc1cc(N2CCN(C)CC2)nc2ccc(NC(=O)c3ccc(Br)o3)cc12
cell number change: -31.8%
AC50 [2]: 29.1 µM [falling, single point]
AC50 [1]: 0.13 µM [rising, full curve]

CCOc1ccc(N(C(C)C(=O)NC(C)CC)S(C)(=O)=O)cc1 (stereo not given)
cell number change: -21.5%
AC50 [2]: 0.326 µM [falling, partial curve, poor fit]
AC50 [1]: 0.92 µM [falling, partial curve, poor fit]

Cc1ccc(S(=O)(=O)N(C)C)cc1NC(=O)c1cccs1
AC50 [2]: 0.0731 µM [rising, full curve, poor fit]

COc1cnc(N(C)C)nc1Sc1cccc(Cl)c1
cell number change: 54%
AC50 [2]: 14.6 µM [rising, partial curve]
AC50 [1]: 23.1 µM [falling, single point]

Cc1cc(C(=O)N2CCCC(N3CCN(c4ccc(F)cc4)CC3)C2)no1 (stereo not given)
cell number change: 2.35%
AC50 [2]: 0.206 µM [rising, full curve, poor fit]
AC50 [1]: 0.58 µM [rising, full curve]

CC[n+]1c(/C=C/Nc2ccccc2)sc2ccccc21
cell number change: -7.16%
AC50 [1]: 0.00517 µM [rising, full curve, poor fit]

Cc1ccc(NC(=O)COC(=O)CNC(=O)c2ccco2)cc1
cell number change: -3.78%
AC50 [2]: 0.082 µM [rising, full curve, poor fit]
AC50 [1]: 6.51 µM [rising, partial curve, poor fit]

COc1ccc(C(CCNCc2ccc(N(C)C)cc2)c2ccccc2)cc1 (stereo not given)
cell number change: -57.8%
AC50 [2]: 29.1 µM [falling, single point]
AC50 [1]: 29.1 µM [falling, single point]

COc1ccc(N2CCN(C(=O)c3ccc(C)cc3Cl)CC2)cc1
cell number change: 53.4%
AC50 [2]: 29.1 µM [rising, single point]

COc1ccc(C2=Nn3c(nnc3-c3ccccc3)SC2)cc1OC
cell number change: 157%
AC50 [2]: 0.291 µM [rising, full curve]
AC50 [1]: 1.84 µM [rising, partial curve]

CNC(=S)NNC(=O)c1ccccc1F
cell number change: 29%
AC50 [1]: 18.4 µM [rising, single point]

O=C(CN(Cc1ccco1)Cc1ccco1)Nc1cc(S(=O)(=O)N2CCCCC2)ccc1Cl
cell number change: -40.6%
AC50 [2]: 14.6 µM [falling, partial curve]
AC50 [1]: 16.4 µM [falling, single point]

O=C(NCC1CCCO1)c1cccc(S(=O)(=O)Nc2ccc(SC(F)F)cc2)c1 (stereo not given)
cell number change: -3.61%
AC50 [1]: 0.058 µM [rising, full curve]

Cn1nnc(NC(=S)NC(=O)c2ccc(-c3ccc(Br)cc3)o2)n1
cell number change: -10.8%

COc1ccccc1NC(=O)C1=C(C)NC(=O)NC1c1ccccc1[N+](=O)[O-] (stereo not given)
cell number change: -65.6%
AC50 [2]: 0.00461 µM [falling, full curve, poor fit]
AC50 [1]: 29.1 µM [falling, partial curve, poor fit]

O=C(c1cccnc1)N1CCN(Cc2ccc3c(c2)OCO3)CC1
cell number change: 23.6%
AC50 [1]: 2.06 µM [rising, partial curve, poor fit]

O=C(CSc1nnc(-c2ccccc2)n1Cc1ccccc1)NC1CC1
cell number change: -6.12%

CCOC(=O)CNS(=O)(=O)c1ccc(S(=O)(=O)N2CCCC2)cc1
cell number change: -32.9%
AC50 [2]: 2.06 µM [falling, full curve]

O=C(NCCN1CCN(C(=O)c2cccc(Br)c2)CC1)C(=O)NCc1ccccc1
cell number change: 37.1%
AC50 [2]: 16.4 µM [rising, partial curve, poor fit]
AC50 [1]: 29.1 µM [rising, single point]

CCN(CC)C(=O)CN(c1ccc(F)c(Cl)c1)S(C)(=O)=O
cell number change: 8.89%

CCOC(=O)c1nn(-c2ccccc2)c(=O)c2c(N)scc12
cell number change: -22.1%

CCOC(=O)[C@@H]1[C@H]2COc3cc(OC)ccc3[C@H]2N2C(=O)N(c3cccc(Cl)c3)C(=O)[C@]12C
cell number change: 102%
AC50 [2]: 32.6 µM [rising, single point]
AC50 [1]: 6.51 µM [rising, single point]

O=C1c2ccccc2C(=O)c2c1oc(C(F)(F)F)c2C(=O)c1ccccc1
cell number change: -6.83%
AC50 [1]: 0.259 µM [rising, full curve]

CC1CN(S(=O)(=O)c2cc(C(=O)NCCC3=CCCCC3)ccc2Cl)CC(C)O1 (stereo not given)
cell number change: -88.4%

C=CCN1C(=O)C(C)NC1=S (stereo not given)
cell number change: 32.4%
AC50 [2]: 0.326 µM [rising, full curve]

OC12CC3C[C@H](C1)C(N1CCOCC1)[C@@H](C3)C2 (stereo not given in full)
cell number change: 9.26%
AC50 [1]: 4.61 µM [rising, full curve]

Cn1cccc1CC(=O)NNC(=S)Nc1ccc(Cl)cc1
cell number change: 3.58%
AC50 [1]: 29.1 µM [rising, single point]

Cc1nn(-c2ccccc2)c(Cl)c1C(=O)NCC(C)c1ccccc1 (stereo not given)
cell number change: 14%
AC50 [1]: 0.13 µM [rising, full curve, poor fit]

O=C(Nc1cccc(-n2cnnn2)c1)c1ccc(OC(F)(F)F)cc1
cell number change: 22.6%

O=S(=O)(c1ccc(Br)cc1)N1CCCc2ccccc21
cell number change: -39.4%
AC50 [2]: 18.4 µM [falling, single point]

CSc1nc(=NC(C)=O)ss1
cell number change: -176%
AC50 [2]: 29.1 µM [falling, single point]
AC50 [1]: 5.17 µM [falling, full curve]

CC1(C)CC(CCNC(=O)CCl)(c2ccccc2)CCO1 (stereo not given)
cell number change: 16.4%

CCOc1ccccc1OCCOc1ccc(F)cc1
cell number change: -21.9%

O=S(=O)(c1cc(Cl)ccc1Br)N1CCOCC1
cell number change: 7.11%
AC50 [1]: 2.91 µM [falling, partial curve]

O=C(NNC(=S)Nc1cccc2ccccc12)c1cccc(Br)c1
cell number change: 46.8%
AC50 [2]: 0.411 µM [rising, full curve, poor fit]

CC(C)N(C(=O)CSc1nc2ccccc2n1Cc1ccc(F)cc1)C(C)C
cell number change: -32%
AC50 [2]: 20.6 µM [falling, single point]
AC50 [1]: 29.1 µM [falling, single point]

CCC1CCCCN1CCNS(=O)(=O)c1ccc2c(c1)oc(=O)n2C (stereo not given)
cell number change: 0.404%
AC50 [1]: 0.411 µM [rising, partial curve, poor fit]

COc1ccc(-c2csc3ncnc(N4CCN(S(=O)(=O)c5ccc(C)c(C)c5)CC4)c23)cc1
cell number change: 8.15%
AC50 [1]: 0.184 µM [rising, full curve, poor fit]

CCCC/C(O)=C1\C(=O)CC(C)(C)CC1=Nc1ccccc1OC
cell number change: 21%

O=C(C1CCN(S(=O)(=O)c2cccc3cccnc23)CC1)N1CCN(c2ccc(Cl)cc2)CC1
cell number change: 15.6%
AC50 [1]: 23.1 µM [falling, single point]

O=C(N/N=C/c1c(O)ccc2ccccc12)c1ccc(Br)o1
cell number change: 117%
AC50 [2]: 29.1 µM [rising, single point]

CCC(NC(=O)CNC(=O)c1ccc2c(c1)OCO2)c1ccc(Br)cc1 (stereo not given)
cell number change: 39.8%
AC50 [2]: 23.1 µM [rising, single point]

COC(=O)c1cn(NC(=O)Cc2ccc(Cl)cc2)c(=O)c2ccccc12
cell number change: -1.28%
AC50 [2]: 6.51 µM [rising, single point]

COc1ccc(/C=N/NC(=O)c2nc(Cl)c(Cl)c(N)c2Cl)cc1COc1ccccc1F
cell number change: 3.75%
AC50 [2]: 3.66 µM [rising, single point]

O=c1c2cc(Cl)cc(Cl)c2nc2n1CCC2
cell number change: 92.3%
AC50 [2]: 0.366 µM [rising, full curve, poor fit]

Cc1ccccc1NC(=O)COC(=O)c1cc(S(=O)(=O)N2CCOCC2)ccc1C
cell number change: 28.7%
AC50 [1]: 32.6 µM [rising, partial curve, poor fit]

O=c1c2c3c(sc2nc2n1CCC2)CCCCC3
cell number change: 22.2%

COc1ccccc1NS(=O)(=O)c1cccc(NC(=O)Nc2ccc(Cl)cc2)c1
cell number change: -17.8%
AC50 [1]: 0.00326 µM [falling, full curve, poor fit]

O=C(NCCN1C(=O)S/C(=C\c2cccs2)C1=O)[C@H](Cc1ccccc1)N1C(=O)c2ccccc2C1=O
cell number change: -47.5%
AC50 [2]: 18.4 µM [falling, single point]

C/C(=N\NC(=O)c1cccc(C)c1)c1cccc(NC(=O)c2ccco2)c1
cell number change: -31.6%
AC50 [2]: 29.1 µM [falling, single point]
AC50 [1]: 29.1 µM [falling, single point]

CC(C)(C)C(=O)/C=C1\NC(=O)CS1
AC50 [1]: 0.326 µM [rising, partial curve, poor fit]

COc1ccccc1CCC(=O)NNC(=O)c1ccncc1
cell number change: -6.66%
AC50 [2]: 0.411 µM [falling, full curve, poor fit]
AC50 [1]: 1.84 µM [falling, partial curve, poor fit]

c1coc(C2OCC3(CO2)COC(c2ccco2)OC3)c1 (stereo not given)
cell number change: -23.9%

CC1(C)Cc2ccccc2/C(=C/C(=O)N2CCCCCC2)N1
cell number change: 23%
AC50 [1]: 7.31 µM [rising, partial curve, poor fit]

CCOc1ccc(CN(C)C(=O)c2ccc(NC(=O)CC3SC(N4CCCC4)=NC3=O)cc2)cc1 (stereo not given)
AC50 [1]: 0.00411 µM [rising, full curve, poor fit]

Cc1ccc(-c2c(C#N)c(N)nc3c2CCCCC3)o1
cell number change: 0.0123%
AC50 [1]: 0.82 µM [rising, full curve, poor fit]

COc1cccc(-c2ccc(NC(=O)C3CCCN(Cc4cnn(C)c4C)C3)cc2)c1 (stereo not given)
cell number change: 14.7%

Cc1cccc(NC(=O)CCNS(=O)(=O)c2cccc3nsnc23)c1C
cell number change: 13.3%

COc1ccc(N(CC(=O)N2CCN(c3ccccc3F)CC2)S(=O)(=O)c2c(C)n[nH]c2C)cc1
cell number change: 18.5%
AC50 [2]: 0.651 µM [falling, single point]
AC50 [1]: 0.58 µM [falling, single point]
